Here are results for seven substances from doi:10.1101/572826.

Amino acid sequences for entries named in this document (tags omitted). A change or cut given only in a name is not applied to a line headed by its entry.
UniProt Q4F883: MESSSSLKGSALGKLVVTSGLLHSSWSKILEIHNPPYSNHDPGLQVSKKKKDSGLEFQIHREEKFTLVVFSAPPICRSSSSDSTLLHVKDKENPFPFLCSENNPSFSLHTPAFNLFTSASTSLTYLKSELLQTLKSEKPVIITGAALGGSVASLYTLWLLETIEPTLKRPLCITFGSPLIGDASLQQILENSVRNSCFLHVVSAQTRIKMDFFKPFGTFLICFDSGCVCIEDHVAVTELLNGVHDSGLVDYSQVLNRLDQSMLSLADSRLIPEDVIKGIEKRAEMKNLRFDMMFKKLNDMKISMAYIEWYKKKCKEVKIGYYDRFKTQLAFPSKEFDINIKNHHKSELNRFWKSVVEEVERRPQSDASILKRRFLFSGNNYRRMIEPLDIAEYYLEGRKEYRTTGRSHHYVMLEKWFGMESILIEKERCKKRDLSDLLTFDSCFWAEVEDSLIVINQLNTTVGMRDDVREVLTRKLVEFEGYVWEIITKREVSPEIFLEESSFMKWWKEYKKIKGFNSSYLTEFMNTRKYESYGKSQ

Results are given in words; binding and its absence hold for the method and conditions named. For some assays here: Binding calls can cover weak binding; strength is not graded here. For some assays here: Sequences can lack the tags named with a protein. For some assays here: In cells and extracts the contact can be indirect.

Assay [1] addresses T1, AtEDS1-3xFLAG (pEDS1:gEDS1-3xFLAG) (Arabidopsis thaliana (Col)) (UniProt Q9XF23).
T1 sequence: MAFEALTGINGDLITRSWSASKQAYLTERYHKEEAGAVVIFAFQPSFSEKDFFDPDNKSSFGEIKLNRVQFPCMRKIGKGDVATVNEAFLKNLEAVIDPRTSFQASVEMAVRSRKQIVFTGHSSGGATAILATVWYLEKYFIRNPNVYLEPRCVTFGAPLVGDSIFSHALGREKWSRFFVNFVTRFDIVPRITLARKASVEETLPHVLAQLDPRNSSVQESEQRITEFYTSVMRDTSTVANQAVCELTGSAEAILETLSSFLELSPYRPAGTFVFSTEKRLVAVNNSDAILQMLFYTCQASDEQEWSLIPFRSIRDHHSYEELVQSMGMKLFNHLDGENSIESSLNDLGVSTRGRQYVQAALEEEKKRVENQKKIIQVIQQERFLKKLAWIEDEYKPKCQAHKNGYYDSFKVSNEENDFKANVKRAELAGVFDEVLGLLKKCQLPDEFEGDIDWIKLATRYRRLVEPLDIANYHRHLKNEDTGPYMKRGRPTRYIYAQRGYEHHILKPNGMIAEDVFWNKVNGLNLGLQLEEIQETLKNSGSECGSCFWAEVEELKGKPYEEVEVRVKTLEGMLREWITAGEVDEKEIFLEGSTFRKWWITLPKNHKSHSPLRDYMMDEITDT
As to the kind of experiment: co-IP.

For assay [2], the target named is 3xFLAG-SlEDS1 (pAtEDS1:3xFLAG-SlEDS1) (tomato (Solanum lycopersicum)). Briefly: co-IP.
Assay [3] concerns the target Brachypodium distachyon PAD4 (BdPAD4), LexA BD fusion for yeast two-hybrid (Brachypodium distachyon) (UniProt I1IMT7). As to the kind of experiment: two-hybrid.
Assay [4] concerns the target tomato PAD4 (SlPAD4), LexA BD fusion for yeast two-hybrid (tomato (Solanum lycopersicum)). Briefly: two-hybrid.
Assay [5] concerns the target T2, 3xFLAG-AtEDS1 (pAtEDS1:3xFLAG-AtEDS1) (Arabidopsis thaliana (Col)) (UniProt Q9XF23).
T2 sequence: T1 sequence
As to the kind of experiment: co-IP.

Assay [6] deals with T3, Arabidopsis PAD4 (AtPAD4), LexA BD fusion for yeast two-hybrid (Arabidopsis thaliana (Col)) (UniProt Q9S745).
T3 sequence: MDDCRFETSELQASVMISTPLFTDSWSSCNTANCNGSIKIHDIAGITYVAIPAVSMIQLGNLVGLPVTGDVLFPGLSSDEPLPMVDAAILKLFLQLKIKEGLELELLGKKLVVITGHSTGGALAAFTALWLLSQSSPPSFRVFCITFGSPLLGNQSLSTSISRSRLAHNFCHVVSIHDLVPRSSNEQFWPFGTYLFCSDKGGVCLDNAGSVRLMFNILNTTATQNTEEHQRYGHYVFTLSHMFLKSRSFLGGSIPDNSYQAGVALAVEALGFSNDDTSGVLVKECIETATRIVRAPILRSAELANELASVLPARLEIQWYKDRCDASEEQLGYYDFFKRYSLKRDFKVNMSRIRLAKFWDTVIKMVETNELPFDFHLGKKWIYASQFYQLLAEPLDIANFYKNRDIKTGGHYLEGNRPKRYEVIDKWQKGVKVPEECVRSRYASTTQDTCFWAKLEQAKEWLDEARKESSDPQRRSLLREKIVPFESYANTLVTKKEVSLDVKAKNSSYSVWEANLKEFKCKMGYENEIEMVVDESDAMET
Briefly: two-hybrid.

For the substance “AtSAG101-YFP (35S:gAtSAG101-YFP) (from UniProt Q4F883)”, the binding result in assay [1] and in assay [2] was “binds” each time.
For the substance “Brachypodium distachyon EDS1 (BdEDS1), Gal4 AD fusion for yeast two-hybrid (from UniProt A0A0Q3LC91)”, the binding result in assay [3] is reported as “binds”; in assay [4], “no binding”.
With “NbSAG101a-GFP (35S:NbSAG101a-GFP) (Nicotiana benthamiana)”, in assay [1], the binding entry is “no binding”.
For “NbSAG101b-GFP (35S:NbSAG101b-GFP) (Nicotiana benthamiana)”, the binding entry in assay [1] is on record as “no binding”.
As for “YFP-HvPAD4 (pAtPAD4:YFP-HvPAD4) (barley (Hordeum vulgare))”, the binding result in assay [5] is on record as “no binding”.
Regarding “YFP-SlPAD4 (pAtPAD4:YFP-SlPAD4) (tomato (Solanum lycopersicum))”, the binding result in assay [5] is recorded as “no binding”.
For the substance “tomato EDS1 (SlEDS1), Gal4 AD fusion for yeast two-hybrid (from UniProt A0A3Q7H109)”, the binding result in assay [3], in assay [6] and in assay [4] was “binds” throughout.
